These are yes or no findings as the source states them, for the method shown. Some binding calls cover weakened binding; strength is not graded here. Where a sequence is shown, tags or fusion partners need not be part of it.
What was measured:
[1] = target: human BNIP3 (yeast two-hybrid fusion) (human) (UniProt Q12983); assay: two-hybrid; Matchmaker Gold Yeast Two-Hybrid System; baits in pGBKT7 (Y2H Gold), preys in pGADT7 (Y187), mated; spotted on SD-leu-trp and SD-leu-trp-his plates, 30 °C
[2] = target: human NIX (yeast two-hybrid fusion) (human) (UniProt O60238); assay: as above

Protein sequences, listed by entry. Tags and fused reporters are not part of them.
UniProt Q12983: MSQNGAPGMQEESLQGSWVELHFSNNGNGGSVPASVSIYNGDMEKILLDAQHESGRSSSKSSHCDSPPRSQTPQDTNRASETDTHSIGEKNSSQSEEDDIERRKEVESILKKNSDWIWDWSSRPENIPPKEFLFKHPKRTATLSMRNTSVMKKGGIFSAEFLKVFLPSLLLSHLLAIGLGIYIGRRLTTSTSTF
UniProt O60238: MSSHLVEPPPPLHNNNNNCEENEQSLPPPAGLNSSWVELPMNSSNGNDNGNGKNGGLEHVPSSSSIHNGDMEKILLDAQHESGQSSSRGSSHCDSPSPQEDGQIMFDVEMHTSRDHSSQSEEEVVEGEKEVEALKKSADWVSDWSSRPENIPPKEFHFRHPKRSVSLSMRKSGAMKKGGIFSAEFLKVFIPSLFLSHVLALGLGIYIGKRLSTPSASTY

binding [1]: binds | binding [2]: binds
B1: full length human PPTC7 (yeast two-hybrid fusion) (enzyme, UniProt Q8NI37 1-304)
chain: MFSVLSYGRLVARAVLGGLSQTDPRAGGGGGGDYGLVTAGCGFGKDFRKGLLKKGACYGDDACFVARHRSADVLGVADGVGGWRDYGVDPSQFSGTLMRTCERLVKEGRFVPSNPIGILTTSYCELLQNKVPLLGSSTACIVVLDRTSHRLHTANLGDSGFLVVRGGEVVHRSDEQQHYFNTPFQLSIAPPEAEGVVLSDSPDAADSTSFDVQLGDIILTATDGLFDNMPDYMILQELKKLKNSNYESIQQTARSIAEQAHELAYDPNYMSPFAQFACDNGLNVRGGKPDDITVLLSIVAEYTD

— paper PMC10575892
